Structures can show the parent of a compound that is named as a salt. This is one part of the list. Single values are uncertain here, since repeats match poorly.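 The cells are human U-2 OS cells that stably carry a GFP sensor with a nuclear import signal and a classical export signal. They were transfected to make PR50, a 50-repeat proline–arginine dipeptide protein from the ALS/FTD gene C9ORF72. Each well's nuclear-minus-cytoplasm GFP signal was scaled from in-plate DMSO (low) to PR-only wells (high), then scored against the other test wells on the plate; compounds scoring well below zero were called hits that reverse the PR effect.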

This experiment deals with U-2 OS NCT-C biosensor cells expressing PR50. Kind of experiment: Z-score of normalised NCT-C biosensor translocation index in PR50-expressing cells; higher = more nuclear biosensor (more disrupted nuclear export). As to conditions: 3 µM; 24 h.
For `Clc1ccc2nsnc2c1NC1=NCCN1` [Tizanidine·HCl], the Z-score is inactive: -0.254.

With `Clc1ccc2nsnc2c1NC1=NCCN1` [Tizanidine hydrochloride], the Z-score was inactive: -0.537.

With `CC(=O)Nc1nnc(S(N)(=O)=O)s1` [Acetazolamide], the Z-score was inactive: 0.292.

Consider `Nc1nc(OCc2cc(Br)cs2)c2[nH]cnc2n1` [Lomeguatrib], for which the Z-score was inactive: -0.149.

`Cc1cc2cc3c(C)cc(=O)oc3c(C)c2o1` [4,5',8-Trimethylpsoralen]: the Z-score is inactive: -0.8.

`N#C/C(=C1/SC[C@@H](c2ccc(Cl)cc2Cl)S1)n1ccnc1` [Luliconazole]: the Z-score was inactive: -0.37.

Regarding `C[C@H]1CC[C@@]2(OC1)O[C@H]1C[C@H]3[C@@H]4CC[C@@H]5C[C@@H](O)CC[C@]5(C)[C@H]4CC[C@]3(C)[C@H]1[C@@H]2C` [Sarsasapogenin], the Z-score is inactive: 0.327.

For `Cc1ccc(C(=O)Nc2sc(Nc3ccccc3)nc2C(N)=O)cc1`, the Z-score is inactive: 0.441.

For `C=C1O[C@@](CO)(n2cnc3c(N)ncnc32)[C@H](O)[C@@H]1O` [Decoyinine], the Z-score is inactive: -0.715.

Take `O=C1/C(=C/c2ccc(O)c(O)c2)Oc2c1ccc(O[C@@H]1O[C@H](CO)[C@@H](O)[C@H](O)[C@H]1O)c2O` [Maritimein]: the Z-score was inactive: -0.126.

`O=C(/C=C/c1ccc(O)c(O)c1)O[C@H](Cc1ccc(O)c(O)c1)C(=O)O` [Rosmarinic acid]: the Z-score was inactive: -0.848.

Turning to `CO/N=C(\C(=O)N[C@@H]1C(=O)N2C(C(=O)O)=C(COC(C)=O)CS[C@H]12)c1csc(N)n1` [Cefotaxime sodium salt], the Z-score was inactive: -0.391.

Consider `CO/N=C(\C(=O)N[C@@H]1C(=O)N2C(C(=O)O)=C(COC(C)=O)CS[C@H]12)c1csc(N)n1` [Cefotaxime Acid], for which the Z-score was inactive: 0.801.

Turning to `C=C[C@](C)(O)CC[C@@H]1[C@@]2(C)CCCC(C)(C)[C@@H]2CC[C@@]1(C)O` [Sclareol], the Z-score is inactive: 0.486.

For the molecule `C[C@]12CC[C@@H]3c4ccc(O)cc4C[C@@H](CCCCCCCCC[S+]([O-])CCCC(F)(F)C(F)(F)F)[C@H]3[C@@H]1CC[C@@H]2O` (stereo partly drawn) [Fulvestrant], the Z-score is inactive: 0.695.

Consider `COc1cc(CNC(=O)CCCC/C=C/C(C)C)ccc1O` [Capsaicin], for which the Z-score was inactive: 0.201.

In the case of `Cc1ccc(NC(=O)CCCCCC(=O)Nc2ccccc2N)cc1`, the Z-score is inactive: -1.8.

As for `CC(C)[N+]1(C)[C@@H]2CC[C@H]1C[C@@H](OC(=O)C(CO)c1ccccc1)C2` (stereo partly drawn) [Ipratropium bromide], the Z-score is inactive: -0.469.

Turning to `Cc1ccc(-c2cc(C(F)(F)F)nn2-c2ccc(S(N)(=O)=O)cc2)cc1` [Celecoxib], the Z-score is inactive: 0.283.

Regarding `CN[C@H]1CC[C@@H](c2ccc(Cl)c(Cl)c2)c2ccccc21` [Sertraline hydrochloride], the Z-score was inactive: 0.645.

For the molecule `CN[C@H]1CC[C@@H](c2ccc(Cl)c(Cl)c2)c2ccccc21` [Sertraline·HCl], the Z-score was inactive: -0.49.

As to `COCCNC(=O)COc1ccc(OCCNC[C@H](O)COc2ccccc2)cc1` [ZD 7114  hydrochloride], the Z-score was inactive: -0.169.

Take `CC[C@H]1OC(=O)[C@H](C)[C@@H](O[C@H]2C[C@@](C)(OC)[C@@H](O)[C@H](C)O2)[C@H](C)[C@@H](O[C@@H]2O[C@H](C)C[C@H](N(C)C)[C@H]2O)[C@](C)(O)C[C@@H](C)CN(C)[C@H](C)[C@@H](O)[C@]1(C)O` [Azithromycin]: the Z-score was inactive: 0.67.

For the molecule `c1ccc2c(c1)CC(N1CCN(c3cccc4c3OCCO4)CC1)C2`, the Z-score is inactive: 0.504.

Turning to `O=C(O)c1ccc(-c2ccc(C=C3SC(=S)N(Cc4ccccc4)C3=O)o2)cc1` [Leukadherin-1], the Z-score was inactive: -1.22.

For the molecule `CCN(CC)CCNC(=O)c1ccc(N)cc1` [Procainamide·HCl], the Z-score was active: -2.35.

With `CCN(CC)CCNC(=O)c1ccc(N)cc1` [Procainamide hydrochloride], the Z-score was inactive: -1.02.

`NC[C@H](O)c1ccc(O)c(O)c1` [Norepinephrine Bitartrate Monohydrate]: the Z-score is inactive: 2.87.

As to `O=C(O)c1ccnc(C(=O)O)c1` [2,4-Pyridinedicarboxylic Acid], the Z-score was inactive: -0.484.

`Cn1c(=O)c2c(ncn2CC2OCCO2)n(C)c1=O` [Doxofylline]: the Z-score was inactive: -0.62.

Turning to `CCCc1cc(C)[nH]c(=O)c1CNC(=O)c1cc(-c2ccnc(N3CCN(C)CC3)c2)cc2c1cnn2C(C)C`, the Z-score is inactive: -1.95.

Turning to `O=C1c2c(O)cc(O)cc2O[C@H](c2ccc(O)c(O)c2)[C@H]1O` (racemic) [(±)-Taxifolin], the Z-score was inactive: -0.0984.

Take `CN1CCN(CC(=O)N2c3ccccc3C(=O)Nc3cccnc32)CC1` [Pirenzepine dihydrochloride]: the Z-score was inactive: -0.713.

For `COc1ccc2cc1Oc1ccc(cc1)C[C@@H]1c3cc(c(OC)cc3CCN1C)Oc1c(OC)c(OC)cc3c1[C@H](C2)N(C)CC3` [Isotetrandrine], the Z-score is inactive: -0.645.

Turning to `CN(C)CCC(c1ccc(Br)cc1)c1ccccn1` (stereo not drawn) [Brompheniramine Maleate], the Z-score is inactive: 0.0683.

For `CN(C)CCC(c1ccc(Br)cc1)c1ccccn1` (stereo not drawn) [(+)-  Brompheniramine maleate salt], the Z-score was inactive: 3.73.

Consider `COc1cc2ncnc(Nc3cccc(Br)c3)c2cc1OC`, for which the Z-score was inactive: 3.65.

Consider `COc1ccc2cc1Oc1ccc(cc1)C[C@H]1c3cc(c(OC)cc3CCN1C)Oc1c(OC)c(OC)c(OC)c3c1[C@H](C2)N(C)CC3` [Hernandezine], for which the Z-score was inactive: -0.31.

Regarding `O=c1[nH]c2ccccc2n1CCN1CCN(c2cccc(C(F)(F)F)c2)CC1` [Flibanserin], the Z-score was inactive: 0.384.

As for `COc1ccccc1N1CCN(CCCNc2c(C)c(=O)n(C)c(=O)n2C)CC1` [Urapidil, 5-Methyl-], the Z-score was inactive: -0.367.

As to `COC(=O)C1=C(C)NC(C)=C(C(=O)OC(C)(C)CN(C)CCC(c2ccccc2)c2ccccc2)C1c1cccc([N+](=O)[O-])c1` (stereo not drawn) [Lercanidipine hydrochloride hemihydrate], the Z-score is inactive: 0.0353.

`C[C@]12CCC(=O)C=C1CC[C@@H]1[C@@H]2CC[C@@]2(C)[C@H]1CC[C@]2(O)C(=O)CO` [Cortexolone]: the Z-score is inactive: 1.97.

`O=C(Nc1cccnc1)c1cc(-c2ccnc(F)c2)ccc1OCc1ccccc1`: the Z-score is inactive: -0.107.

For the molecule `CCC1(c2ccccc2)C(=O)NCNC1=O` [Primidone], the Z-score was inactive: 0.348.

With `CCCCCCCCCC(=O)N[C@@H](Cc1c[nH]c2ccccc12)C(=O)N[C@H](CC(N)=O)C(=O)N[C@@H](CC(=O)O)C(=O)N[C@@H]1C(=O)NCC(=O)N[C@@H](CCCN)C(=O)N[C@@H](CC(=O)O)C(=O)N[C@H](C)C(=O)N[C@@H](CC(=O)O)C(=O)NCC(=O)N[C@H](CO)C(=O)N[C@@H]([C@H](C)CC(=O)O)C(=O)N[C@@H](CC(=O)c2ccccc2N)C(=O)O[C@@H]1C` [Daptomycin], the Z-score is inactive: -0.148.

For `CC1CCN(CC[C@H]2CCCN2S(=O)(=O)c2cccc(O)c2)CC1`, the Z-score was inactive: -0.48.

For `CCOc1nc2cccc(C(=O)O)c2n1Cc1ccc(-c2ccccc2-c2nnn[nH]2)cc1` [Candesartan], the Z-score is inactive: 0.517.

On to `C[C@@](Cc1ccc(O)c(O)c1)(NN)C(=O)O` [S(-)-Carbidopa . monohydrate], for which the Z-score is inactive: 0.519.

With `NC(=O)[C@@H]1CSSCCC(=O)N[C@@H](CCCCN=C(N)N)C(=O)NCC(=O)N[C@@H](CC(=O)O)C(=O)N[C@@H](Cc2c[nH]c3ccccc23)C(=O)N2CCC[C@H]2C(=O)N1` [Eptifibatide acetate], the Z-score was inactive: 0.0908.

Turning to `NC[C@@H]1O[C@H](C23CC4CC(CC(C4)C2)C3)Cc2c1ccc(O)c2O`, the Z-score is inactive: 0.486.

`COc1ccc([C@@H]2CC(=O)c3c(O)cc(OC4O[C@H](CO[C@H]5O[C@@H](C)[C@@H](O)[C@@H](O)[C@H]5O)[C@H](O)[C@H](O)[C@H]4O)cc3O2)cc1O` (stereo partly drawn) [Hesperidine]: the Z-score was inactive: -0.783.

For the molecule `Cl.N[C@@H](CCC(=O)O)C(=O)O` [L-Glutamic acid hydrochloride], the Z-score is inactive: -0.596.

As to `Clc1ccc2c(c1)CCc1cccnc1C2=C1CCNCC1` [Desloratadine], the Z-score was inactive: 0.249.

Regarding `O=C1NCC2(CCN(CCc3ccccc3)CC2)O1` [Fenspiride hydrochloride], the Z-score is inactive: 0.0203.

`Cc1cc(C)c(S(=O)(=O)N(CCc2cccc(Br)c2)Cc2ccc(-c3cccc(S(C)(=O)=O)c3)cc2)c(C)c1`: the Z-score is inactive: -0.424.

As to `CSC(=N)N` [S-Methyl isothiourea hemisulfate], the Z-score is inactive: -0.544.

Turning to `CN(C)CCOC(c1ccccc1)c1ccccc1.Cn1c(=O)c2[nH]c(Cl)nc2n(C)c1=O` [Dimenhydrinate], the Z-score was inactive: -0.291.

As to `O=C(CCCCCN1CCN(c2ccccc2-c2ccccc2)CC1)NC1CCCc2ccccc21` (stereo not drawn) [LP 12  hydrochloride hydrate], the Z-score was inactive: -0.622.

With `O=C1NC(=O)c2cc(Nc3ccccc3)c(Nc3ccccc3)cc21`, the Z-score is inactive: 4.07.

With `Cc1[nH]cnc1CN1CCc2c(c3ccccc3n2C)C1=O` [Alosetron·HCl], the Z-score was inactive: -0.162.

For `O=C(O)CCc1ccc(NCc2cccc(Oc3ccccc3)c2)cc1`, the Z-score is inactive: -0.415.

Consider `CCN(CC)C(=O)c1ccc(O)c(OC)c1` [Vanillic acid diethylamide], for which the Z-score was inactive: -0.132.

Take `NC1(C(=O)O)CC1` [1-  Aminocyclopropanec arboxylic acid Hydrochloride]: the Z-score was inactive: -0.266.

The values are drawn from the supplement of paper PMC8616043.
